Data from paper PMC3764210.
No constants are given. Whether binding was seen depends on the method and setting. Binding seen in cells or lysates may run through a third protein. Some results given as binding are weak or reduced against the parent protein; the word gives no strength.

Assays:
[1] = biological target: T1, SPCLIP1 (Anopheles gambiae (endogenous in G3 strain hemolymph)); assay: co-IP; agarose beads cross-linked to affinity purified anti-SPCLIP1 antibody (Pierce Co-IP kit); cleared hemolymph of 100 mosquitoes collected 15 min after E. coli bioparticle injection into PBS with 0.05% Triton X-100 and protease inhibitors; overnight at 4 °C; TEP1 detected by reducing western blot
T1 sequence: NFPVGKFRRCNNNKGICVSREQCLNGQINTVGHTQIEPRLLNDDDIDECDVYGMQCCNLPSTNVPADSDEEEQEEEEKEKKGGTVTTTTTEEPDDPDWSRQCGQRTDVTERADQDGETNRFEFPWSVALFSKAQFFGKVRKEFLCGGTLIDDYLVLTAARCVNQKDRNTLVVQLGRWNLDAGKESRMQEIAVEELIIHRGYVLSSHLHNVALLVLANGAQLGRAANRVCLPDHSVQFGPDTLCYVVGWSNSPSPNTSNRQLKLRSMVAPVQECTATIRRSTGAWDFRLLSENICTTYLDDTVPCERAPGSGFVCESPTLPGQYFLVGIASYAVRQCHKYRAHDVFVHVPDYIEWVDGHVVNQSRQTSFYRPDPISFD

[2] = biological target: T1, SPCLIP1 (Anopheles gambiae (endogenous in G3 strain hemolymph)); assay: condition: only mock challenge (PBS injection), without E. coli bioparticles; co-IP; as a1, but hemolymph collected 15 min after mock challenge (PBS injection, no E. coli bioparticles)

B1: TEP1cut (protein, UniProt Q9GYW4 22-1340)
chain: LLVVGPKFIRANQEYTLVISNFNSQLSKVDLLLKLEGETDNGLSVLNVTKMVDVRRNMNRMINFNMPEELTAGNYKITIDGQRGFSFHKEAELVYLSKSISGLIQVDKPVFKPGDTVNFRVILLDTELKPPARVKSVYVTIRDPQRNVIRKWSTAKLYAGVFESDLQIVPTPMLGVWNISVEVEGEELVSKTFEVKEYVLSTFDVQVMPSVIPLEEHQAVNLTIEANYHFGKPVQGVAKVELYLDDDKLNQKKELTVYGKGQVELRFDNFAMDADQQDVRVKVSFIEQYTNRTVVKQSQITVYRYAYRVELIKESPQFRPGLPFKCALQFTHHDGTPAKGITGKVEVSDVGFETTTTSDNDGLIKLELQPSEGTEQLGINFNAVDGFFFYEDVNKVETVTDAYIKLELKSPIKRNKLMRFMVTCTERMTFFVYYVMSKGNIIDAGFMRPNKQTKYLLQLNATEKMIPKAKILIATVAGRTVVYDYADLDFQELRNNFDLSIDEQEIKPGRQIELSMSGRPGAYVGLAAYDKALLLFNKNHDLFWEDIGQVFDGFHAINENEFDIFHSLGLFARTLDDILFDSANEKTGRNALQSGKPIGKLVSYRTNFQESWLWKNVSIGRSGSRKLIEVVPDTTTSWYLTGFSIDPVYGLGIIKKPIQFTTVQPFYIVENLPYSIKRGEAVVLQFTLFNNLGAEYIADVTLYNVANQTEFVGRPDTDLSYTKSVSVPPKVGVPISFLIKARKLGEMAVRVKASIMLGHETDALEKVIRVMPESLAQPKMDTSFFCFDDYKNQTFPFNLDINKKADNGSKKIEFRLNPNLLTMVIKNLDNLLAVPTGCGEQNMVKFVPNILVLDYLYATGSKEQHLIDKATNLLRQGYQNQMRYRQTDGSFGVWEKSGSSVFLTAFVATSMQTASKYMNDIDAAMVEKALDWLASKQHSSGRFDETGKVWHKDMQGGLRNGVALTSYVLTALLENDIAKVKHAVVIQNGMNYLSNQLAFINNPYDLSIATYAMMLNGHTMKKEALDKLIDMSISDNNKKERYWGTTNQIETTAYALLSFVMAEKYLDGIPVMNWLVNQRYVTGSFPRTQDTFVGLKALTKLAEKISPSRNDYTVQLKYKKNTKYFNINSEQIDVQNFLEIPEDTKKLEINVGGIGFGLLEVIYQFDLNLVNFEHRFKLDLEKQNTGSDYELRLRVCANYIPELTDSQSNMALIEVTLPSGYVVDRNPISEQTTVNPIQNMEIRYGGTSVVLYYYKMGTERNCFTVTAYRRFKVALKRPAYVVVYDYYNTNLNAIKVYEVDKQNVCEICEEEDCPAECKK
[1]
  binding: binds
[2]
  binding: no binding

B2: TEP1-F (protein, UniProt Q9GYW4 22-1340)
chain: LLVVGPKFIRANQEYTLVISNFNSQLSKVDLLLKLEGETDNGLSVLNVTKMVDVRRNMNRMINFNMPEELTAGNYKITIDGQRGFSFHKEAELVYLSKSISGLIQVDKPVFKPGDTVNFRVILLDTELKPPARVKSVYVTIRDPQRNVIRKWSTAKLYAGVFESDLQIVPTPMLGVWNISVEVEGEELVSKTFEVKEYVLSTFDVQVMPSVIPLEEHQAVNLTIEANYHFGKPVQGVAKVELYLDDDKLNQKKELTVYGKGQVELRFDNFAMDADQQDVRVKVSFIEQYTNRTVVKQSQITVYRYAYRVELIKESPQFRPGLPFKCALQFTHHDGTPAKGITGKVEVSDVGFETTTTSDNDGLIKLELQPSEGTEQLGINFNAVDGFFFYEDVNKVETVTDAYIKLELKSPIKRNKLMRFMVTCTERMTFFVYYVMSKGNIIDAGFMRPNKQTKYLLQLNATEKMIPKAKILIATVAGRTVVYDYADLDFQELRNNFDLSIDEQEIKPGRQIELSMSGRPGAYVGLAAYDKALLLFNKNHDLFWEDIGQVFDGFHAINENEFDIFHSLGLFARTLDDILFDSANEKTGRNALQSGKPIGKLVSYRTNFQESWLWKNVSIGRSGSRKLIEVVPDTTTSWYLTGFSIDPVYGLGIIKKPIQFTTVQPFYIVENLPYSIKRGEAVVLQFTLFNNLGAEYIADVTLYNVANQTEFVGRPDTDLSYTKSVSVPPKVGVPISFLIKARKLGEMAVRVKASIMLGHETDALEKVIRVMPESLAQPKMDTSFFCFDDYKNQTFPFNLDINKKADNGSKKIEFRLNPNLLTMVIKNLDNLLAVPTGCGEQNMVKFVPNILVLDYLYATGSKEQHLIDKATNLLRQGYQNQMRYRQTDGSFGVWEKSGSSVFLTAFVATSMQTASKYMNDIDAAMVEKALDWLASKQHSSGRFDETGKVWHKDMQGGLRNGVALTSYVLTALLENDIAKVKHAVVIQNGMNYLSNQLAFINNPYDLSIATYAMMLNGHTMKKEALDKLIDMSISDNNKKERYWGTTNQIETTAYALLSFVMAEKYLDGIPVMNWLVNQRYVTGSFPRTQDTFVGLKALTKLAEKISPSRNDYTVQLKYKKNTKYFNINSEQIDVQNFLEIPEDTKKLEINVGGIGFGLLEVIYQFDLNLVNFEHRFKLDLEKQNTGSDYELRLRVCANYIPELTDSQSNMALIEVTLPSGYVVDRNPISEQTTVNPIQNMEIRYGGTSVVLYYYKMGTERNCFTVTAYRRFKVALKRPAYVVVYDYYNTNLNAIKVYEVDKQNVCEICEEEDCPAECKK
[1]
  binding: binds weakly
[2]
  binding: no binding
